{"source": "PubChem BioAssay AID1159578 (Peter MacCallum Cancer Centre, 2015)", "test": "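siRNA pools altering how lymphatic endothelial cells close a scratch wound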 (primary screen)", "cells": "human lymphatic endothelial cells", "reagents": "siRNA pool against human genes, 40 nM", "duration": "48 h after transfection", "read-out": "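High-content imaging of dye-stained cells in a scratch assay measures filled wound area and nuclei per well; duplicate means given as ratio to mock and robust z-score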", "reading the numbers": "migration robust z-score: higher = faster migration into the scratch; nuclei per well: higher = more cells in the well", "call rule": "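Pools averaging fewer than 3300 nuclei are never called; remaining pools count as changed when migration robust z lies outside -2 to 2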", "meaning of the calls": "active = migration changed; inactive = no migration change, or too few cells", "note": "Here is an unselected part of about 18,000 reagents. In the full data, about 1,030 (5.7%) are marked active. 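Inactive calls also include pools with fewer than 3300 nuclei, whose migration was not assessed.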 The raw values are shown without normalisation. Entries without a mark were called inactive. Not all columns of the deposit are shown."}
{"gene symbol": "KCTD16", "PubChem SID": "SID255359443", "migration robust z-score": 0, "nuclei per well, duplicate mean": 5772}
{"gene symbol": "REST", "PubChem SID": "SID255352092", "migration robust z-score": -1.34, "nuclei per well, duplicate mean": 5806}
{"gene symbol": "CCDC34", "PubChem SID": "SID255361884", "migration robust z-score": -0.76, "nuclei per well, duplicate mean": 5420}
{"gene symbol": "NAB2", "PubChem SID": "SID255351133", "migration robust z-score": -1.92, "nuclei per well, duplicate mean": 6504}
{"gene symbol": "RBM18", "PubChem SID": "SID255362011", "migration robust z-score": -1.64, "nuclei per well, duplicate mean": 6158}
{"gene symbol": "CRBN", "PubChem SID": "SID255357544", "migration robust z-score": "-3.11 (active)", "nuclei per well, duplicate mean": 5256}
{"gene symbol": "DNAJC6", "PubChem SID": "SID255354591", "migration robust z-score": "-2.08 (active)", "nuclei per well, duplicate mean": 4656}
{"gene symbol": "TAF1", "PubChem SID": "SID255352729", "migration robust z-score": -0.68, "nuclei per well, duplicate mean": 6116}
{"gene symbol": "TMA16", "PubChem SID": "SID255358594", "migration robust z-score": 1.2, "nuclei per well, duplicate mean": 5816}
{"gene symbol": "KRT5", "PubChem SID": "SID255350681", "migration robust z-score": "2.29 (active)", "nuclei per well, duplicate mean": 6865}
{"gene symbol": "CCIN", "PubChem SID": "SID255348726", "migration robust z-score": -0.99, "nuclei per well, duplicate mean": 4600}
{"gene symbol": "KNL1", "PubChem SID": "SID255359250", "migration robust z-score": 0.6, "nuclei per well, duplicate mean": 6198}
{"gene symbol": "SHFL", "PubChem SID": "SID255358612", "migration robust z-score": 0.1, "nuclei per well, duplicate mean": 4602}
{"gene symbol": "TLN1", "PubChem SID": "SID255352886", "migration robust z-score": 0.36, "nuclei per well, duplicate mean": 5328}
